# Laboratory results: PubChem BioAssay AID1259281 (Sanger Institute, 2017)
# Assay: 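Identify essential genes and drug-enhancing knock-downs among kinases and common colorectal mutated genes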 (primary screen)
# Cell system: human COLO678 colorectal cancer cell line
# Reagents: siRNA pool against human genes
# Challenge: anchor drugs at fixed doses: BYL719 1 µM, cetuximab 5 µg/ml or trametinib 10 nM; DMSO vehicle for the siRNA-alone arm
# Measurement: 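Surviving cells scaled to non-targeting siRNA control as replicate means; robust z-score for knock-down alone; synergy scores weigh knock-down with drug against the predicted combined effect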
# Scale: robust z-score, siRNA alone: higher = more viable cells; strongly negative means essential; viability, siRNA alone: higher = more surviving cells; synergy score with BYL719 and synergy score with trametinib and synergy score with cetuximab: higher = stronger synergistic killing with drug
# Hit rule: 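Essential (knock-down alone) when the siRNA-alone robust z-score is below -3; otherwise no change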
# Calls: active = essential (knock-down alone); inactive = no change
# Shown is one part, drawn at random, of 794 reagents. 22 of them (2.8%) were called active. 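Calls rest on knock-down alone only; drug synergy scores play no part in them.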 Unmarked entries are inactive. Viability is capped at 1. Reagent sequences are not shown. Not stated in the record: the amount of reagent, the time to read-out.
gene,"robust z-score, siRNA alone","viability, siRNA alone (fraction of control)",synergy score with BYL719,synergy score with trametinib,synergy score with cetuximab
MYLK3 (GeneID 91807),-1.74,0.93,-0.0887,0.0359,0.055
ANKK1 (GeneID 255239),-0.316,0.975,-0.00243,-0.00855,-0.00597
PIK3C2B (GeneID 5287),0.473,1,-0.0919,0.0503,0.0746
STAG2 (GeneID 10735),0.473,1,-0.0729,-0.049,-0.0239
MAK (GeneID 4117),0.473,1,0.0178,0.0301,-0.0612
IPPK (GeneID 64768),-2.23,0.914,0.0576,-0.0475,-0.0253
PIK3R2 (GeneID 5296),0.473,1,-0.0477,-0.0482,-0.0309
HIPK1 (GeneID 204851),0.473,1,0.0269,-0.012,-0.0681

Continued, starting with the last 2 of the part before.
gene,"robust z-score, siRNA alone","viability, siRNA alone (fraction of control)",synergy score with BYL719,synergy score with trametinib,synergy score with cetuximab
PIK3R2 (GeneID 5296),0.473,1,-0.0477,-0.0482,-0.0309
HIPK1 (GeneID 204851),0.473,1,0.0269,-0.012,-0.0681
ETNK1 (GeneID 55500),0.473,1,-0.0209,0.00292,-0.0346
NRK (GeneID 203447),0.473,1,0.0106,-0.0143,0.0492
PRKCQ (GeneID 5588),0.473,1,-0.0601,0.0799,-0.0254
AXL (GeneID 558),0.473,1,-0.0919,0.0388,-0.0128
GALK1 (GeneID 2584),0.473,1,-0.000418,-0.0618,0.0771
TP53 (GeneID 7157),-1.17,0.948,-0.078,-0.0195,-0.00447
BCKDK (GeneID 10295),0.473,1,-0.0919,0.0291,-0.00768
